Results: the supplement of paper PMC10849652
Some of the results follow.

Chains of the proteins cited; added tags and fusions are not shown. Lines headed by an entry give the natural chain unless they say otherwise; changes in a name come on top.
UniProt Q9UEU0: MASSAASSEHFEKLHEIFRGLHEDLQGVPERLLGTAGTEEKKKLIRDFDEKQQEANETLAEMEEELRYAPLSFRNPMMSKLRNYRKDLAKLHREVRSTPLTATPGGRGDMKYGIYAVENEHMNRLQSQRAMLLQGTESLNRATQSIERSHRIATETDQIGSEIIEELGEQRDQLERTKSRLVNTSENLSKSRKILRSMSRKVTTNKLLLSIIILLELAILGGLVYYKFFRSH
UniProt Q9BRG1: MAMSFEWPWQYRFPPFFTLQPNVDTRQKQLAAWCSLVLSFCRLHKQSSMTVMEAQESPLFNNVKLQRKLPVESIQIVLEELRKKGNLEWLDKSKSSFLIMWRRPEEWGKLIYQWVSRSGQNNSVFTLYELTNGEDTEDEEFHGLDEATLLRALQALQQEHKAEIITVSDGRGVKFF
UniProt Q5MNZ6: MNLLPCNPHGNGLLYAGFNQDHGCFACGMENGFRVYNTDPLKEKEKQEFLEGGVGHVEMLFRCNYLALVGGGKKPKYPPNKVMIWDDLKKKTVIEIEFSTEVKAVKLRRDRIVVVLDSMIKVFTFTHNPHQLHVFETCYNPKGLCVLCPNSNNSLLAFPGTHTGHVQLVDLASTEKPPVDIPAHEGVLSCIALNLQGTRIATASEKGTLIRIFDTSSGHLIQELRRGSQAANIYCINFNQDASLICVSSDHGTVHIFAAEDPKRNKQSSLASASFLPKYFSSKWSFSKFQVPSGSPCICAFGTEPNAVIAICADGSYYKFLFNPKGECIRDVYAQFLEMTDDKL
UniProt Q9UN37: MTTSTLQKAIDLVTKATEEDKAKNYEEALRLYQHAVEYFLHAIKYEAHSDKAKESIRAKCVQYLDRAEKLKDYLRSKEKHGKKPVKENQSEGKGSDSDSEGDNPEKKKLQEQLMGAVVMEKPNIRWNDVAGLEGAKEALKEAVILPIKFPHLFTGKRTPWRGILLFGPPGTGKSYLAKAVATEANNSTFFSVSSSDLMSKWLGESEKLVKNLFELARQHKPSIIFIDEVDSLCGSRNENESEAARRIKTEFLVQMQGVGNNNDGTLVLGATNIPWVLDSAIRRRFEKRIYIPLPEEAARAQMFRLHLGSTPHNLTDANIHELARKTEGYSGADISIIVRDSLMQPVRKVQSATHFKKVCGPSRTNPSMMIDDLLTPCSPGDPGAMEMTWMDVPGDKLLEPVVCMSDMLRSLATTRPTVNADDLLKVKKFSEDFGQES
UniProt Q3ZAQ7: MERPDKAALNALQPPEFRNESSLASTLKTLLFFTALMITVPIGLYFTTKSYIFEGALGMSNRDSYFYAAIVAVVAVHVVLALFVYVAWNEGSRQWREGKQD
UniProt A5D8V6: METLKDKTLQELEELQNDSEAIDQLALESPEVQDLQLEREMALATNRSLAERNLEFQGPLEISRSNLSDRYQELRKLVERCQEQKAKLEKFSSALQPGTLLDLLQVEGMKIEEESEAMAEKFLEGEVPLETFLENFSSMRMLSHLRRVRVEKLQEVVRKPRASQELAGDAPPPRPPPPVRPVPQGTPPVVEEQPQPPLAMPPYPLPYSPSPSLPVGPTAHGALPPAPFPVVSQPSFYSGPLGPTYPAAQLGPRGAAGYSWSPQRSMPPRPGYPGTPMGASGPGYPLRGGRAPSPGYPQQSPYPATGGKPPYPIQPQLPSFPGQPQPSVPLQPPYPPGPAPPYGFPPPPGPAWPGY
UniProt Q6VEQ5: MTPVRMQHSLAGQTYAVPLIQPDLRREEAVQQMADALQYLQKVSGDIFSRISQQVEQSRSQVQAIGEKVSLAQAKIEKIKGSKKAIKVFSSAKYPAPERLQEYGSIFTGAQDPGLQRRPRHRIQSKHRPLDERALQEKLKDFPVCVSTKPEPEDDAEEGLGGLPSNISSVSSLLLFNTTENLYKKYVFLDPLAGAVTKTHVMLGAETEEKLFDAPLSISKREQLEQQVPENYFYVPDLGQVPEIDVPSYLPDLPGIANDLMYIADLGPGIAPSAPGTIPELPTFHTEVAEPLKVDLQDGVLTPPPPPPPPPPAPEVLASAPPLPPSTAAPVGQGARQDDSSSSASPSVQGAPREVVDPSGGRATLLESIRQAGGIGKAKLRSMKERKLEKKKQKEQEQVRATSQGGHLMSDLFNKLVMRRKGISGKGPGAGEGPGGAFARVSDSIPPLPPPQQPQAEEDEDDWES
UniProt Q5THJ4: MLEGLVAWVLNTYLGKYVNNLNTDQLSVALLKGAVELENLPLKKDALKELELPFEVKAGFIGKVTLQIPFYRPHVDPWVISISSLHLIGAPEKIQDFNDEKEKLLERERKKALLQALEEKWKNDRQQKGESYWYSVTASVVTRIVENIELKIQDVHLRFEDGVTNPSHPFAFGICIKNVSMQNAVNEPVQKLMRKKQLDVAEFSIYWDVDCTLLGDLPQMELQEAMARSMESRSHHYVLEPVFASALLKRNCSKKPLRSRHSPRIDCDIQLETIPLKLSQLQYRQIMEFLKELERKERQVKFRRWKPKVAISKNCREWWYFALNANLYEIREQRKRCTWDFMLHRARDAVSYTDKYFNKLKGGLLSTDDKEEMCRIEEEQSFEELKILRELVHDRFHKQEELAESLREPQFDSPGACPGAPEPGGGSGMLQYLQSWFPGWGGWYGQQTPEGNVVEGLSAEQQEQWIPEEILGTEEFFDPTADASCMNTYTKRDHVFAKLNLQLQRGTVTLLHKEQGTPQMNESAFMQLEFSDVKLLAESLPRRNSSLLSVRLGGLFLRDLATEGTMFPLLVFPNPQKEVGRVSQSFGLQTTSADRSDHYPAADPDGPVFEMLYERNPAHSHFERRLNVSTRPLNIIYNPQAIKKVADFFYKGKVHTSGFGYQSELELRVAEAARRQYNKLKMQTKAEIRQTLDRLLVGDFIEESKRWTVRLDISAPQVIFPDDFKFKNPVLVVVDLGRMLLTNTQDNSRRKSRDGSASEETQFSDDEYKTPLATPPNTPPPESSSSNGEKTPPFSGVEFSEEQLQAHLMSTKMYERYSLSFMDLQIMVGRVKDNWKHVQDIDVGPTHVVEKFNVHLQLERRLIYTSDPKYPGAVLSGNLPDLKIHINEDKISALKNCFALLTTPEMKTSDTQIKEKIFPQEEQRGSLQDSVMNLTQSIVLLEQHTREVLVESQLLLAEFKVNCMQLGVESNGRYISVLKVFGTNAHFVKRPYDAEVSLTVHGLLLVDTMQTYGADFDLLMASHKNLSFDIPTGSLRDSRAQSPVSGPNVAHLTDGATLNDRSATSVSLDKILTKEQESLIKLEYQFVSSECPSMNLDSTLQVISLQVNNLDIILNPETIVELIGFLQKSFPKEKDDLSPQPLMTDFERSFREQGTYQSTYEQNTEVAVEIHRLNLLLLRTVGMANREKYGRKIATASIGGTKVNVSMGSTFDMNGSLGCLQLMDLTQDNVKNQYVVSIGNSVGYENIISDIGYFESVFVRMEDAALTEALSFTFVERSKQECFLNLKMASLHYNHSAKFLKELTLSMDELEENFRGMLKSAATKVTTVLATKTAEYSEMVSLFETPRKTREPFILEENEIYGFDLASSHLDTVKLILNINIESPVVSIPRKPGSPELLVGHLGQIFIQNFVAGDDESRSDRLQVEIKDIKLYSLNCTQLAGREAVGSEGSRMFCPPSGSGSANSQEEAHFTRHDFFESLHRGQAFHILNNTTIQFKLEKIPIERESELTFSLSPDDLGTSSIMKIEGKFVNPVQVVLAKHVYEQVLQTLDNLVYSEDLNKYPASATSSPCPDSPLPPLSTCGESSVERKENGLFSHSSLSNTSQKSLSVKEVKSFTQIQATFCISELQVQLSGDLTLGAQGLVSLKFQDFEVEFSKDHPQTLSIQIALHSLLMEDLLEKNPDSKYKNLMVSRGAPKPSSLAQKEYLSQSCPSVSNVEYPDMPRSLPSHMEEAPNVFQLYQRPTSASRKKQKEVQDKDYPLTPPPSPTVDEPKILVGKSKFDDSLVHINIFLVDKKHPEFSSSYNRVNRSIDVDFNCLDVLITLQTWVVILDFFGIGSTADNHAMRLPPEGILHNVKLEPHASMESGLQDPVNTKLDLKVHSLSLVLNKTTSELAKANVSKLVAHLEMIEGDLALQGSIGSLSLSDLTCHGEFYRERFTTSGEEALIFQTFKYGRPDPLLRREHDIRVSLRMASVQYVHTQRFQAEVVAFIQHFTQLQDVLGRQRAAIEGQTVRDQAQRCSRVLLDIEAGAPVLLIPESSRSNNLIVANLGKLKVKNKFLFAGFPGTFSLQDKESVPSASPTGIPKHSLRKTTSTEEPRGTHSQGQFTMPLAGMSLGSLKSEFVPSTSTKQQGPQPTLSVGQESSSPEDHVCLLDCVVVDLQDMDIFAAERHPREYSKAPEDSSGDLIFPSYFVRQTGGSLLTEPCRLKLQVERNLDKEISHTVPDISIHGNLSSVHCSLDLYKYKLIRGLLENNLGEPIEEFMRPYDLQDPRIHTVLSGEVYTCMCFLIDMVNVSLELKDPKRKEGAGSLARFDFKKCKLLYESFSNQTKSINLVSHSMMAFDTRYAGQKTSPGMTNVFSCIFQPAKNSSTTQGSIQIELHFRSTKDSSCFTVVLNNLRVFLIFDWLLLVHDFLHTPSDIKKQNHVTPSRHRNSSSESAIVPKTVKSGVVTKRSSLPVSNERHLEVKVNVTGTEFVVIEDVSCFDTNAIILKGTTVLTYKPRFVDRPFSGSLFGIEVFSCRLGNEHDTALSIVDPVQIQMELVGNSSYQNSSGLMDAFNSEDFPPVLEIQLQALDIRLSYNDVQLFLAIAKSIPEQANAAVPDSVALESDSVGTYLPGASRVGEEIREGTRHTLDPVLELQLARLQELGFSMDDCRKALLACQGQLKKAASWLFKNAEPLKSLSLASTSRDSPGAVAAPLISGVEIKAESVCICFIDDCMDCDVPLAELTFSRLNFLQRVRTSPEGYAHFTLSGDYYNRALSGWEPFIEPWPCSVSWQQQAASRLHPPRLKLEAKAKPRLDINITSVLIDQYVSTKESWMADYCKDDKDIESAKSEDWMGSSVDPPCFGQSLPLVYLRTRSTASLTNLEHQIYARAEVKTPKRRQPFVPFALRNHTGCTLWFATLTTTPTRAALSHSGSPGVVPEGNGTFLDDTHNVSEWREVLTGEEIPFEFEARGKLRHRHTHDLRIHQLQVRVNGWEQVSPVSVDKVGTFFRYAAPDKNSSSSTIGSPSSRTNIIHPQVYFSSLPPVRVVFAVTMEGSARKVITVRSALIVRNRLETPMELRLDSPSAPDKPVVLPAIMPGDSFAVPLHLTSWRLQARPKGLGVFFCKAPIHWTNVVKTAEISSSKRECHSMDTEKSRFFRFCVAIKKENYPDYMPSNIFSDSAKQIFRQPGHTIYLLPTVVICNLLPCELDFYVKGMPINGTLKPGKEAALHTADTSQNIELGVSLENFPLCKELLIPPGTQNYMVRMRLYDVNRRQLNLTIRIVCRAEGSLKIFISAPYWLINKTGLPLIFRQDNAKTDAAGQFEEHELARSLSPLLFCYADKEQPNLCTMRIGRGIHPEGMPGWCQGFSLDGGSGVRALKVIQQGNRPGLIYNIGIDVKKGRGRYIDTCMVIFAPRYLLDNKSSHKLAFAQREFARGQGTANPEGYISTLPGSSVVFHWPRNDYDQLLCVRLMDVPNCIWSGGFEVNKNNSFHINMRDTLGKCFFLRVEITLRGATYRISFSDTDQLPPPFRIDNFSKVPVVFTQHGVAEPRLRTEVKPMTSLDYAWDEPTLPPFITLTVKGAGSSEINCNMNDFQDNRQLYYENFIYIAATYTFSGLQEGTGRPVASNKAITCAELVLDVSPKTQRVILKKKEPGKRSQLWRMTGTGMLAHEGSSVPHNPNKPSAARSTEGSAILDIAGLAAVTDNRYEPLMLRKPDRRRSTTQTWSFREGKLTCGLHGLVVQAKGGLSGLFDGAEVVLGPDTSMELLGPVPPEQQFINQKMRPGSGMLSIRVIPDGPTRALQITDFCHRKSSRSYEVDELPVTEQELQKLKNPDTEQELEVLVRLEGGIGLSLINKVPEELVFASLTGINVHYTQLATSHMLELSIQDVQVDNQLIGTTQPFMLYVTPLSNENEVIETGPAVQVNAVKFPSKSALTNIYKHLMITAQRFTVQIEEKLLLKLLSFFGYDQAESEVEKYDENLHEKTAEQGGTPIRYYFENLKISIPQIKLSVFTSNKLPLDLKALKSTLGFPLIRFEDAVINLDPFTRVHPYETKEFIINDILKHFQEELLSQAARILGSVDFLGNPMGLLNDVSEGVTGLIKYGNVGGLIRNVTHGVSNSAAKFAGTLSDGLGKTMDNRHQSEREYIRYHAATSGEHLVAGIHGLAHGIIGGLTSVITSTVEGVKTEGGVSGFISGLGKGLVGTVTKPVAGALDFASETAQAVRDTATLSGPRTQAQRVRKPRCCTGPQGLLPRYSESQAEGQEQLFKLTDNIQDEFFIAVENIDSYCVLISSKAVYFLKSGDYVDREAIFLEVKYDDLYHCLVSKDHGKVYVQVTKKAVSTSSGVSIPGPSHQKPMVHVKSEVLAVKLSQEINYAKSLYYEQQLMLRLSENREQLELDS

Key:
Test in all cases: log2 fold change, soluble protein after heating vs DMSO (PISA); higher = thermal stabilisation; K562 cells, 10 uM, 30 min; active = over 0.2 and 3.5 SD of the protein, either way, in both replicates (recomputed)
[1] = compound: C#Cc1cccc(Nc2ncnc3cc(OCCOC)c(OCCOC)cc23)c1 [erlotinib]
Method in brief: (§1)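 K562 cells at 2×10^6 cells/mL were exposed to 10 μM compound for 30 min, then aliquots were heated for 3 min across 48°C-58°C, pooled, and extracted in PBS containing 0.5% NP-40 at 4°C. The supernatant after 21,000xg for 90 min was taken as soluble protein and measured by TMTpro 16plex LC-MS/MS with channel sums equalised. Thermal stability is reported relative to control samples, with values from duplicates. Fold changes are given on a log2 scale.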

[2] = compound: C/C(=N\NC(=O)C1=CC(=CC=C1)S(=O)(=O)N2CCOCC2)/C3=C(C=CC(=C3)Cl)O
Method in brief: as §1

[3] = compound: C1=CC(=C(C=C1Cl)C2=NC3=NC=CN=C3C(=N2)NC4=CC=NC=C4)F
Method in brief: as §1

[4] = compound: C1=CC(=CC=C1C2=NC3=C(N2)C=C(C=C3)C(=O)N)OC4=CC=C(C=C4)Cl
Method in brief: as §1

[5] = compound: C1=CC2=C(C=CC(=C2)/C=C\3/C(=O)NC(=NCC4=CC=CS4)S3)N=C1
Method in brief: as §1

[6] = compound: C1=CC2=NC=CN=C2C=C1/C=C/3\C(=O)NC(=O)S3
Method in brief: as §1

[7] = compound: C1=CC=C(C=C1)C2=NC(=C(N2)C3=CC=NC=C3)C4=CC(=C(C=C4)Cl)O
Method in brief: as §1

[8] = compound: C1=CC=C2C(=C1)C3=NNC4=CC=CC(=C43)C2=O
Method in brief: as §1

[9] = compound: C1CCN(C1)C(=O)NC2=CC=CC(=C2)NC3=NC=C(C(=N3)NCCC4=CN=CN4)Br
Method in brief: as §1

[10] = compound: C1CN(CCC1(CC2=CC=C(C=C2)Cl)N)C3=NC=NC4=C3C=CN4
Method in brief: as §1

Measured: log2 fold change

WRNIP1 (UniProt Q96S55)
inactive: [1] 0.108 | [2] 0.186 | [3] 0.065 | [4] -0.181 | [5] 0.126 | [6] 0.001 | [7] 0.025 | [8] -0.06 | [9] 0 | [10] -0.138

WIZ isoform 3 (UniProt O95785)
inactive: [1] 0.053 | [2] -0.044 | [3] -0.036 | [4] 0.01 | [5] -0.056 | [6] 0.055 | [7] -0.027 | [8] 0.02 | [9] -0.012 | [10] 0.09

WDR62 isoform 4 (UniProt O43379)
inactive: [1] 0.046 | [2] 0.015 | [3] -0.118 | [4] 0.055 | [5] -0.016 | [6] 0.046 | [7] -0.05 | [8] -0.041 | [9] 0 | [10] 0.014

VEZT (UniProt Q9HBM0)
inactive: [1] -0.06 | [2] -0.069 | [3] 0.15 | [4] 0.065 | [5] 0.007 | [6] -0.067 | [7] -0.007 | [8] -0.045 | [9] -0.025 | [10] -0.025

WIZ (UniProt O95785)
inactive: [1] 0.016 | [2] 0.027 | [3] -0.054 | [4] 0.016 | [5] 0.02 | [6] 0.023 | [7] 0.029 | [8] -0.069 | [9] -0.068 | [10] 0.009

VTI1B (UniProt Q9UEU0)
inactive: [1] 0.011 | [2] -0.008 | [3] -0.023 | [4] -0.02 | [5] 0 | [6] 0.03 | [7] -0.055 | [8] -0.036 | [9] 0.022 | [10] 0.046

VPS25 (UniProt Q9BRG1)
inactive: [1] -0.011 | [2] 0.101 | [3] 0.1 | [4] -0.012 | [5] 0.066 | [6] 0.015 | [7] 0.037 | [8] 0.04 | [9] 0.01 | [10] 0.011

VPS26A (UniProt O75436)
inactive: [1] -0.033 | [2] 0.05 | [3] 0.057 | [4] 0.054 | [5] 0.045 | [6] 0.073 | [7] 0.017 | [8] 0.024 | [9] -0.034 | [10] 0.037

VPS26B (UniProt Q4G0F5)
inactive: [1] 0.023 | [2] 0.044 | [3] 0.045 | [4] 0.018 | [5] -0.005 | [6] 0.016 | [7] 0.057 | [8] 0 | [9] 0.021 | [10] 0.082

WASHC2A (UniProt Q641Q2)
inactive: [1] 0.008 | [2] -0.026 | [3] -0.025 | [4] 0.002 | [5] 0.004 | [6] 0.058 | [7] -0.072 | [8] -0.037 | [9] 0.029 | [10] -0.017

WDR13 (UniProt Q9H1Z4)
inactive: [1] 0.014 | [2] 0.03 | [3] 0.019 | [4] 0.057 | [5] 0.024 | [6] -0.012 | [7] 0.019 | [8] 0.024 | [9] 0.004 | [10] 0.033

WIPF2 (UniProt Q8TF74)
inactive: [1] 0.043 | [2] -0.037 | [3] -0.012 | [4] 0.04 | [5] 0.006 | [6] 0.027 | [7] -0.077 | [8] -0.013 | [9] 0.029 | [10] 0.079

VPS16 (UniProt Q9H269)
inactive: [1] 0.104 | [2] 0.128 | [3] -0.004 | [4] -0.034 | [5] 0.093 | [6] 0.087 | [7] -0.031 | [8] -0.018 | [9] -0.007 | [10] -0.128

WBP4 (UniProt O75554)
inactive: [1] 0 | [2] -0.07 | [3] 0.04 | [4] 0.009 | [5] -0.082 | [6] 0.031 | [7] -0.059 | [8] -0.055 | [9] 0.031 | [10] 0.036

WARS1 (UniProt G3V277)
inactive: [1] 0.183 | [2] -0.032 | [4] -0.076 | [5] 0.25 | [6] 0.036 | [8] -0.014 | [9] 0.141 | [10] -0.008

Retrieved one by one from the entries so far (two):
VPS16 (UniProt Q9H269)
inactive: [1] 0.104 | [2] 0.128 | [3] -0.004 | [4] -0.034 | [5] 0.093 | [6] 0.087 | [7] -0.031 | [8] -0.018 | [9] -0.007 | [10] -0.128

WIPF2 (UniProt Q8TF74)
inactive: [1] 0.043 | [2] -0.037 | [3] -0.012 | [4] 0.04 | [5] 0.006 | [6] 0.027 | [7] -0.077 | [8] -0.013 | [9] 0.029 | [10] 0.079

Next results

WDR45B (UniProt Q5MNZ6)
inactive: [1] 0.053 | [2] 0.031 | [3] 0.036 | [4] 0.025 | [5] -0.015 | [6] 0.03 | [7] -0.043 | [8] -0.071 | [9] -0.049 | [10] 0.064

WDTC1 (UniProt Q8N5D0)
inactive: [1] 0.024 | [2] 0.066 | [3] -0.089 | [4] 0.026 | [5] 0.037 | [6] 0.061 | [7] -0.035 | [8] 0.077 | [9] -0.137 | [10] -0.005

WDR59 (UniProt Q6PJI9)
inactive: [1] -0.001 | [2] 0.037 | [3] 0.108 | [4] 0.092 | [5] 0.166 | [6] -0.005 | [7] 0.018 | [8] 0.028 | [9] -0.029 | [10] -0.059

VKORC1 (UniProt Q9BQB6)
inactive: [1] 0.048 | [2] -0.048 | [4] -0.019 | [5] 0.175 | [6] 0.113 | [7] 0.044 | [8] 0.151 | [9] -0.049 | [10] 0.005

WDR53 (UniProt Q7Z5U6)
inactive: [1] -0.006 | [2] 0.002 | [4] -0.051 | [5] -0.066 | [6] 0.061 | [7] 0.075 | [8] 0.008 | [9] 0.032 | [10] -0.035

VPS50 (UniProt Q96JG6)
inactive: [1] 0.008 | [2] 0.094 | [3] -0.003 | [4] -0.017 | [5] 0.088 | [6] 0.025 | [7] 0.023 | [8] -0.019 | [9] -0.022 | [10] -0.021

XIAP (UniProt P98170)
inactive: [1] 0.166 | [2] 0.062 | [3] 0.1 | [4] -0.002 | [5] 0.075 | [6] -0.018 | [8] -0.002 | [9] -0.024 | [10] 0.065

VPS8 (UniProt Q8N3P4)
inactive: [1] 0.005 | [2] 0.036 | [3] 0.017 | [4] -0.024 | [5] 0.016 | [6] 0.031 | [7] 0.041 | [8] 0.012 | [9] 0.026 | [10] 0.027

VPS4A (UniProt Q9UN37)
inactive: [1] 0.007 | [2] 0.042 | [3] 0.084 | [4] -0.074 | [5] -0.017 | [6] 0.02 | [7] 0.034 | [8] 0.029 | [9] 0.027 | [10] -0.028

WDR3 (UniProt Q9UNX4)
inactive: [1] -0.022 | [2] -0.171 | [3] -0.426 | [4] 0.114 | [5] -0.039 | [6] 0.008 | [7] 0.117 | [8] 0.121 | [9] 0.085 | [10] -0.231

VMA21 (UniProt Q3ZAQ7)
inactive: [1] 0.013 | [2] 0.047 | [3] 0.068 | [4] 0.049 | [5] -0.042 | [6] -0.021 | [8] -0.039

VPS37C (UniProt A5D8V6)
inactive: [1] 0.101 | [2] -0.006 | [3] 0.091 | [4] -0.094 | [5] -0.024 | [6] 0.081 | [8] -0.036 | [9] -0.125 | [10] 0.045

WASH2P (UniProt Q6VEQ5)
inactive: [1] 0.005 | [2] -0.02 | [3] -0.084 | [4] 0.003 | [5] 0.041 | [6] 0.038 | [7] 0.014 | [8] 0.011 | [9] 0.117 | [10] 0.013

VWDE (UniProt Q8N2E2)
inactive: [1] -0.001 | [2] -0.077 | [3] 0.011 | [4] 0.019 | [5] -0.031 | [6] 0 | [7] 0.023 | [8] -0.031 | [9] -0.016 | [10] 0.008

VCX3B (UniProt Q9H321)
inactive: [1] 0.057 | [2] -0.022 | [3] -0.028 | [4] 0.013 | [5] 0.042 | [6] -0.085 | [8] 0.006 | [9] 0.029 | [10] -0.031

WDR47 (UniProt O94967)
inactive: [1] 0.038 | [2] 0.065 | [3] -0.014 | [4] -0.002 | [5] -0.002 | [6] 0.06 | [7] 0.047 | [8] 0 | [9] 0.013 | [10] 0.006

VPS13D (UniProt Q5THJ4)
inactive: [1] -0.041 | [2] -0.369 | [3] -0.195 | [4] 0.008 | [5] 0.334 | [6] -0.093 | [7] 0.034 | [8] 0.007 | [9] -0.142 | [10] -0.076
